Results: article PMC7819943, “Rice protein-binding microarrays: a tool to detect cis-acting elements near promoter regions in rice”
Some of the results follow.

Chains of the proteins cited; added tags and fusions are not shown.
UniProt Q0JBA9, entry or part of it: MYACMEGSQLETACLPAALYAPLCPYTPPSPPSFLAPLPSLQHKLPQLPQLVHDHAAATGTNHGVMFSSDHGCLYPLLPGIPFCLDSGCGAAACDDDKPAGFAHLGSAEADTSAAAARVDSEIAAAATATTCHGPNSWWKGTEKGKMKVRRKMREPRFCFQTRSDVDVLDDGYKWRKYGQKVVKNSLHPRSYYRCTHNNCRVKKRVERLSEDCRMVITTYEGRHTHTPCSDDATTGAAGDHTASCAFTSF

molecular target: OsWRKY34 (Oryza sativa, UniProt Q0JBA9 1-250); assay: protein-binding microarray (RPBM); PBS, 2% BSA, 51.3 ng/ul salmon testes DNA, 50 uM zinc acetate, 200 nM TF, 25 C, 1 h; high values mean tight binding; conditions: protein: recombinant; tags: N-terminal polyhistidine and DsRed monomer fusion (pET32a); label: CyDye5-dUTP incorporated in the synthesized complementary strand; 3' TTTTT single-stranded linker to array surface; dsDNA, one strand shown
Summary of the method: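 Per-feature fluorescence intensity (arbitrary units), read on an Axon 4000B scanner, is the binding signal. Transcription factors carrying an N-terminal polyhistidine tag and DsRed fusion were expressed in E. coli BL21-CodonPlus and purified on Ni–NTA. A custom Agilent array, made double-stranded by primer extension with Cy5-dUTP and blocked with 2% BSA, was incubated with 200 nM protein in PBS, 2% BSA, salmon testes DNA and 50 µM zinc acetate at 25 °C for 1 h and then washed.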

Sequence | binding signal
TGTTGATTTTTTAAAATATGTTTGACCGTTCGTCTTATTCCGGAGTCACCTAGTGCAG | 10700 fluorescence intensity (a.u.)
CATAATCGTCATTTCGGTTTGCTTTGTCCTAATGTTTTCCCGGAGTCACCTAGTGCAG | 8880 fluorescence intensity (a.u.)
ATATTTGACACCGTTGATTTTTTAGCGCATGTCTGAACGTCGGAGTCACCTAGTGCAG | 9530 fluorescence intensity (a.u.)
GCTGGTGCAGGCTTCTACCTTCTCTTCTCTCTATCAACACCGGAGTCACCTAGTGCAG | 11300 fluorescence intensity (a.u.)
TTCTTGAATGATTTGCTAATTGCTACATGTATCCTCTTTCCGGAGTCACCTAGTGCAG | 9090 fluorescence intensity (a.u.)
AATAAGACGAACGGTCAAACATGTTTTCAAAAGTCAACGGCGGAGTCACCTAGTGCAG | 11100 fluorescence intensity (a.u.)
AGGGGAGTTGATTACAGGGAGTTACAGGGTTCCAAGCTTTCGGAGTCACCTAGTGCAG | 9460 fluorescence intensity (a.u.)
AGGCTCTATTGGTTTCTCCTCTGTACATACAGTAGTAGTCCGGAGTCACCTAGTGCAG | 8640 fluorescence intensity (a.u.)
TGGTTCTTCAAGATCTGTTGCTCCTATCAAGGCTGGATTCCGGAGTCACCTAGTGCAG | 8920 fluorescence intensity (a.u.)
CAACAGTTAGCATTATATATTCGGTTCTACTAACTTGTCTCGGAGTCACCTAGTGCAG | 9060 fluorescence intensity (a.u.)
CCTTCCCGCGCCGCCCACCCGGCCACCCTCCGCTCCATCCCGGAGTCACCTAGTGCAG | 9680 fluorescence intensity (a.u.)
TTTTTTTCAGGGAAAAAATGCTGTGACCATTTGTTCGTTTCGGAGTCACCTAGTGCAG | 8100 fluorescence intensity (a.u.)
ATTCTATTATCCCATCCGTCTCAAATACTACTTGATGTATCGGAGTCACCTAGTGCAG | 10100 fluorescence intensity (a.u.)
TCTCGTTTCCAATGTCCTTTTTTTCAACTACATTTCCAATCGGAGTCACCTAGTGCAG | 10600 fluorescence intensity (a.u.)
CGAATCACAAAGCGAGGCCCACTTCCACCTTTTCCTATTTCGGAGTCACCTAGTGCAG | 9290 fluorescence intensity (a.u.)
ATGATGTAGTGGGCTTTTTAATGGTGTTTTTTTGCCTATTCGGAGTCACCTAGTGCAG | 10200 fluorescence intensity (a.u.)
TGCACATTTTTCTTCCTTTATTTTCGTGTGGAGTATATTTCGGAGTCACCTAGTGCAG | 10700 fluorescence intensity (a.u.)
TCATTGCCATCACATTGTAGATCTTCAATTGCGTACTTGTCGGAGTCACCTAGTGCAG | 8470 fluorescence intensity (a.u.)
TGCACATCACCGATCACATTTGTTTTTTAAAGACGTCCCTCGGAGTCACCTAGTGCAG | 8810 fluorescence intensity (a.u.)
TGGCTACACAGGCTACTCATCCTTTTTCAGTTTTTCAAACCGGAGTCACCTAGTGCAG | 8390 fluorescence intensity (a.u.)
TTCTCACTGGCCCAGCACAAGTGGGTTTAATTTGTTGTCCCGGAGTCACCTAGTGCAG | 8740 fluorescence intensity (a.u.)

Shown with tabs: part of the list above
Sequence	binding signal
TGTTGATTTTTTAAAATATGTTTGACCGTTCGTCTTATTCCGGAGTCACCTAGTGCAG	10700 fluorescence intensity (a.u.)
CATAATCGTCATTTCGGTTTGCTTTGTCCTAATGTTTTCCCGGAGTCACCTAGTGCAG	8880 fluorescence intensity (a.u.)

(further entries)

Sequence | binding signal
AGTATTGCAAGTGTAGTTCTACCTCTATCGTGACCTCAATCGGAGTCACCTAGTGCAG | 9970 fluorescence intensity (a.u.)
TAGCTCGTCTCGTCTCTTCTCTACCCCAATCCCGTTCTCTCGGAGTCACCTAGTGCAG | 11000 fluorescence intensity (a.u.)
ACTCTCTCTCTCTCTCTCTCTCTCTCTCTCTCTCCAATCTCGGAGTCACCTAGTGCAG | 9700 fluorescence intensity (a.u.)
TTTTCAAAATCGCGCATCCACCGCCGCTCGACCAAAAAAACGGAGTCACCTAGTGCAG | 8870 fluorescence intensity (a.u.)
ACTACCTCAACCTGCAATCCCACTGCAACATCTACCTGCTCGGAGTCACCTAGTGCAG | 8260 fluorescence intensity (a.u.)
CCCGATCTCCTCTCGCCGTCGGCGTCGCCCGGGTCGCCGCCGGAGTCACCTAGTGCAG | 10000 fluorescence intensity (a.u.)
TCTGTCGTCGCCGCGCCGGCCCTCACTGGAGATCGCCTCTCGGAGTCACCTAGTGCAG | 9280 fluorescence intensity (a.u.)
ATCACTCTTCTTGGTCGTTCTTGCCATTCTTGTACCGCGACGGAGTCACCTAGTGCAG | 18200 fluorescence intensity (a.u.)
TGTGTACTATTTTTTCTACCGTTGGATACAAATATGAGGGCGGAGTCACCTAGTGCAG | 8510 fluorescence intensity (a.u.)
TTCTTTCTTCTCCTCCTGGATTTCTGCCGGCTCGAGATCTCGGAGTCACCTAGTGCAG | 11400 fluorescence intensity (a.u.)
TTAGCTAGTTTGCCCCAACACACCACACACTACACATGCACGGAGTCACCTAGTGCAG | 8460 fluorescence intensity (a.u.)
TCTCTTTTCTTTTCTTTCTTTTTATTTTGTTGTTCCTTTACGGAGTCACCTAGTGCAG | 12600 fluorescence intensity (a.u.)
GGCCGTCCATCGCGCCACATCCAACGGCCACCATGCGACGCGGAGTCACCTAGTGCAG | 9510 fluorescence intensity (a.u.)
ATACTATAACATATCACTTCCCGTTCTAGATTTACCTTTTCGGAGTCACCTAGTGCAG | 8040 fluorescence intensity (a.u.)
TTGCTTGCCGTTGCTGGCTGTGTCAGTGTGCCACCCACTCCGGAGTCACCTAGTGCAG | 9100 fluorescence intensity (a.u.)
TTACTATATAGCCGTGCCTCGTTTTGTTAATAAAAAGCTTCGGAGTCACCTAGTGCAG | 8450 fluorescence intensity (a.u.)
GCATTTCCAGGCCCACGGAAGCCACGCTTCTTCTCCAGCGCGGAGTCACCTAGTGCAG | 8060 fluorescence intensity (a.u.)
GGCGTGATGTTTTCTGCTGAAGTAATTTTCTAGTTTCTCACGGAGTCACCTAGTGCAG | 9090 fluorescence intensity (a.u.)
ATTTTTTAGCCAATTTACACCGTAATCACTGAATGCTAATCGGAGTCACCTAGTGCAG | 8510 fluorescence intensity (a.u.)
CCCATGCCACTGCAACCTAGACCTCTCTACTAGCTAGCTTCGGAGTCACCTAGTGCAG | 9040 fluorescence intensity (a.u.)
ATTCTTTTTTCTCGGAGAGACGGCCCAACCCAACCGAATTCGGAGTCACCTAGTGCAG | 9880 fluorescence intensity (a.u.)
